Experimental findings from patent publication US20070003561A1 are described below.

By UniProt entry, the sequences of proteins in these tests, tags left out. Where a name states a change or a piece, a line headed by the entry shows the natural chain unless it says otherwise.
UniProt P0A4G2: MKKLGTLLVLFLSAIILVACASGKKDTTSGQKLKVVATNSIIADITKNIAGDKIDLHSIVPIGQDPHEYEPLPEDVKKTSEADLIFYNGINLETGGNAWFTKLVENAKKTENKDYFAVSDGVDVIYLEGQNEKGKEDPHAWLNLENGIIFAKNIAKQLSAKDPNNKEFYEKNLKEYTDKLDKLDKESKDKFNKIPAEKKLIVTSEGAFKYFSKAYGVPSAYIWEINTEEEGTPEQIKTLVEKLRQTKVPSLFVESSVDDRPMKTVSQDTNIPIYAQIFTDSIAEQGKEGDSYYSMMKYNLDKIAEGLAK

In this assay the target is Streptococcus pneumoniae surface adhesin A (PsaA) protein (Streptococcus pneumoniae) (UniProt P0A4G2). In words: Western blot on S. pneumoniae lysates, Ab 2 µg/ml.

No constants are given. Whether binding was seen depends on the method and setting. Some binding calls cover weakened binding; strength is not graded here.

B1: Anti-PsaA 7-1G9 (antibody, V domains shown)
VH: QVRLQQWGAGLLKPSETLSLTCAVFGGSFSGFSWSWIRQTPGKGLEWIGEIDYRGSTNYNPSLKSRVTILRDTSRSQFSLKLSSVTAADSAVFYCARGGPRFDYWGQGTLVTVSS
VL: DIQMTQSPSSLSASVGDRVTITCRASQGISSWLAWYQQKPEKAPESLIYVASSLQSGVPSRFSGSGSGTDFTLTISSLQPEDFATYYCQQYNSYPPTFGQGTKVEIK
B1: the binding result is on record as “binds”.
